According to the supplement of paper PMC10849652:
The other results are listed elsewhere or left out. Residues, ends and D or L forms follow the SMILES beside them. *: point of attachment. Cbz = O=C(OCc1ccccc1)*

Chains of the proteins cited; added tags and fusions are not shown. Lines headed by an entry give the natural chain unless they say otherwise; changes in a name come on top.
UniProt Q9Y5Y2: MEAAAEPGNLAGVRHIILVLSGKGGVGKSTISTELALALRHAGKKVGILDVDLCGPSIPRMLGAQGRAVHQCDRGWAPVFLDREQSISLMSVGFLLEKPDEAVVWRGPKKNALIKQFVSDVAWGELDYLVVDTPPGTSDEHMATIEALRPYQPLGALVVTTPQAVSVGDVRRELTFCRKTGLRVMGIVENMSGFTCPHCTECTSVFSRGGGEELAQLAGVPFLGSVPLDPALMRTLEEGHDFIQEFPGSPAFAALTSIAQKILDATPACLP
UniProt Q9BV86: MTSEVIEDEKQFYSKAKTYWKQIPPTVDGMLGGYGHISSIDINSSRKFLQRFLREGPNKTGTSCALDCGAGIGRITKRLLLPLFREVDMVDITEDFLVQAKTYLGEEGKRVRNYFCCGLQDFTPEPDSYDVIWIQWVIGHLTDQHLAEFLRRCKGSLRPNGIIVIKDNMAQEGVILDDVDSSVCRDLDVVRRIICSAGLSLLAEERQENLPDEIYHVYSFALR
UniProt O15504: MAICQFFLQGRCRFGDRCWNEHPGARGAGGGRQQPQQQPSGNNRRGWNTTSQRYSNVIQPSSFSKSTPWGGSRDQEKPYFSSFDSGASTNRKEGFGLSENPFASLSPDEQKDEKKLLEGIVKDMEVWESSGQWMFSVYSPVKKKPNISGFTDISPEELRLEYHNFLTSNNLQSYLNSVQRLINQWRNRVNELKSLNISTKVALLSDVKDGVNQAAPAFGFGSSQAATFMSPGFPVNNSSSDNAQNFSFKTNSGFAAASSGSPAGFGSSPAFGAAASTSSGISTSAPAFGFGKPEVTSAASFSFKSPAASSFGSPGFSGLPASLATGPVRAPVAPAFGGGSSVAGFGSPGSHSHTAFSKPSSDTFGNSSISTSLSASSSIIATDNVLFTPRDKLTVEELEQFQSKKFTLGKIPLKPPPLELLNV
UniProt P04181: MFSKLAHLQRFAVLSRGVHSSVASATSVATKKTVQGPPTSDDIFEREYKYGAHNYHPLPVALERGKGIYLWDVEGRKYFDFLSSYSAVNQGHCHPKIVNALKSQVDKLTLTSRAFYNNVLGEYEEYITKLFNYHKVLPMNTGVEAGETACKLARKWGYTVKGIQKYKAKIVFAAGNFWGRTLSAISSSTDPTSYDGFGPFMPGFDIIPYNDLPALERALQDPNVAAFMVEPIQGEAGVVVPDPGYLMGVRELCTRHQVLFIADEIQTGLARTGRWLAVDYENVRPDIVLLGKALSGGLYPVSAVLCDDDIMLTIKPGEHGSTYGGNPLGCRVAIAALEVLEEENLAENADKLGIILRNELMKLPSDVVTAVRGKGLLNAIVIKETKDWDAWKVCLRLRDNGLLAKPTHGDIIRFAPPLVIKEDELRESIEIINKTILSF
UniProt P49790, whole entry, looked up: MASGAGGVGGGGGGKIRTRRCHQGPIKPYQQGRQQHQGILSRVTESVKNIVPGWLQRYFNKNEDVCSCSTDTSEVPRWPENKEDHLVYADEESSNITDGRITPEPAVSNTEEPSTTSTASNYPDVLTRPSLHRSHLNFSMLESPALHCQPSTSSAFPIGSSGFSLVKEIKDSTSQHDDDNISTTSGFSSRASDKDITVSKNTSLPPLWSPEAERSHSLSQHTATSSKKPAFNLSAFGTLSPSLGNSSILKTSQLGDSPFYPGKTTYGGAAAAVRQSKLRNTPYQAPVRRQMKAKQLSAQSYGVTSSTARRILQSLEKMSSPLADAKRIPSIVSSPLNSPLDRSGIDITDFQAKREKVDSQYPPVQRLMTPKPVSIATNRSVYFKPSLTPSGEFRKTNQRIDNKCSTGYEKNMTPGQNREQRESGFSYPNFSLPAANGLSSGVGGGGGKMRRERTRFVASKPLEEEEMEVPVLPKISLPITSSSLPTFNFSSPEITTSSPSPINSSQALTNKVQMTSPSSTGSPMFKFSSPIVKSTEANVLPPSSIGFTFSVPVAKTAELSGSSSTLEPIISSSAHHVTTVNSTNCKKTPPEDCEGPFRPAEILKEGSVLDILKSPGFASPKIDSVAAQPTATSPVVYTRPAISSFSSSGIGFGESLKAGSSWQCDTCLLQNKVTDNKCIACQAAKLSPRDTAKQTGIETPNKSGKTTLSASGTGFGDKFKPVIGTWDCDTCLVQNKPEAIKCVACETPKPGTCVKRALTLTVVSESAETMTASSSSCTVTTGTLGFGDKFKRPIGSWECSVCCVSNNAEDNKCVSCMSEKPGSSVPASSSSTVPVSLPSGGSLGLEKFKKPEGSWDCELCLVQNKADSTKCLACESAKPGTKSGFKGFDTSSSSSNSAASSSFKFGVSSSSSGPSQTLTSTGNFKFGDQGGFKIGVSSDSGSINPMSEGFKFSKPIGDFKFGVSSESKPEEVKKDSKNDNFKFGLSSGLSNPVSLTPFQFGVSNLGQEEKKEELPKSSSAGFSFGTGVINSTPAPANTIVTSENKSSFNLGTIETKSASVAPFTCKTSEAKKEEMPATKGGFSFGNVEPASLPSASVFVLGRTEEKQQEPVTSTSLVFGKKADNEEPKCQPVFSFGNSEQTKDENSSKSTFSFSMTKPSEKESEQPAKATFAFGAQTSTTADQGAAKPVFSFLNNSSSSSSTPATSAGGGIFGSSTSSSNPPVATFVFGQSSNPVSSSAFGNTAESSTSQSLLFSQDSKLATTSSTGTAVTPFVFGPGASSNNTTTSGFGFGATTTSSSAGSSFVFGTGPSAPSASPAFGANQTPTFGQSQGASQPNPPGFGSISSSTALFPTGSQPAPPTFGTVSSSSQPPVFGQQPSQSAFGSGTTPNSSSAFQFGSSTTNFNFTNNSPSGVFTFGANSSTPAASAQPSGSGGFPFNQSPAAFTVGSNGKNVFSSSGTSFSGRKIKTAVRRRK
UniProt Q6GQQ9: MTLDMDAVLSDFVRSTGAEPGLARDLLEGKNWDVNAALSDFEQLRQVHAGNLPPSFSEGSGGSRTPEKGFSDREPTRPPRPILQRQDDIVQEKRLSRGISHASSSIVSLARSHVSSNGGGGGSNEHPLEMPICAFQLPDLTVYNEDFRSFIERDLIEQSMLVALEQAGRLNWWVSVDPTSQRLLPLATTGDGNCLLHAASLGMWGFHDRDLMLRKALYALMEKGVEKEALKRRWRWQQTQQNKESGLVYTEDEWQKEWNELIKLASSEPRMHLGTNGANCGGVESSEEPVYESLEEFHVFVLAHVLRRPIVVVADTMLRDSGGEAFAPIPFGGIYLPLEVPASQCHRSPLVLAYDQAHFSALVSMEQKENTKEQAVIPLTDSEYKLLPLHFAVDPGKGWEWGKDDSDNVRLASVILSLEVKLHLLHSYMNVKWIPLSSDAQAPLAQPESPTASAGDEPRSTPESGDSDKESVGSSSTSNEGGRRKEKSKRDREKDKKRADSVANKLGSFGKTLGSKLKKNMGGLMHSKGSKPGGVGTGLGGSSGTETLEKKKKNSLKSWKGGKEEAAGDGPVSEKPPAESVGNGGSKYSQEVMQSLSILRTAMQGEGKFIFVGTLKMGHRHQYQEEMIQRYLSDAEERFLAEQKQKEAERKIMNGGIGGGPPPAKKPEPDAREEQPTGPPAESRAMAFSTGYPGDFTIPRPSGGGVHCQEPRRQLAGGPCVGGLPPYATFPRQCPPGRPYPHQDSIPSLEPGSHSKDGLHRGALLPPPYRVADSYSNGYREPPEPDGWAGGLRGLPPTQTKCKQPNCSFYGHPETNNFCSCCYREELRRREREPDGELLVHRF
UniProt Q8NE18: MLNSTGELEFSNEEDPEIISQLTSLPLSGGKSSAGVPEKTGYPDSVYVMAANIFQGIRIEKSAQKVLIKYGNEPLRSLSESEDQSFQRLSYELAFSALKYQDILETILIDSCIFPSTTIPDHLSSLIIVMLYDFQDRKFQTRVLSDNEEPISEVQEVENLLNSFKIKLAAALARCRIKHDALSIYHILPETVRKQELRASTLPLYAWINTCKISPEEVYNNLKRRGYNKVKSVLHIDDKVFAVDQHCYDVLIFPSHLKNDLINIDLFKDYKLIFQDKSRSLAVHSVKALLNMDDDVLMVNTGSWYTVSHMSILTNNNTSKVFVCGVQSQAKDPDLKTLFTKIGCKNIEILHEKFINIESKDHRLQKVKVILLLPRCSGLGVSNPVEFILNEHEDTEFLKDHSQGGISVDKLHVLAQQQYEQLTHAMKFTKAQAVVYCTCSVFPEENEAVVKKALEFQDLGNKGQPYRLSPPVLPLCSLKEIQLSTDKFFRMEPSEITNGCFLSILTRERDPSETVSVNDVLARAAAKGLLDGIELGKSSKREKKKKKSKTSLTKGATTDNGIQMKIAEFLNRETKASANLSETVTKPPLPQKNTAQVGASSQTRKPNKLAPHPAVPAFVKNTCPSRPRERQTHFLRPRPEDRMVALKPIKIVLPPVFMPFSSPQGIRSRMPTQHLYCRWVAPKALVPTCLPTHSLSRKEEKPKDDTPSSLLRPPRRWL
UniProt O95989: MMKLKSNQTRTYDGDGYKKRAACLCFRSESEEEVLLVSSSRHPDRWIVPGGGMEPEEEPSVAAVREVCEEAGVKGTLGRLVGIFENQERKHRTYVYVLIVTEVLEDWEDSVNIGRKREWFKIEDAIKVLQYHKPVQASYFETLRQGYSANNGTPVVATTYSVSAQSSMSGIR
UniProt Q12769: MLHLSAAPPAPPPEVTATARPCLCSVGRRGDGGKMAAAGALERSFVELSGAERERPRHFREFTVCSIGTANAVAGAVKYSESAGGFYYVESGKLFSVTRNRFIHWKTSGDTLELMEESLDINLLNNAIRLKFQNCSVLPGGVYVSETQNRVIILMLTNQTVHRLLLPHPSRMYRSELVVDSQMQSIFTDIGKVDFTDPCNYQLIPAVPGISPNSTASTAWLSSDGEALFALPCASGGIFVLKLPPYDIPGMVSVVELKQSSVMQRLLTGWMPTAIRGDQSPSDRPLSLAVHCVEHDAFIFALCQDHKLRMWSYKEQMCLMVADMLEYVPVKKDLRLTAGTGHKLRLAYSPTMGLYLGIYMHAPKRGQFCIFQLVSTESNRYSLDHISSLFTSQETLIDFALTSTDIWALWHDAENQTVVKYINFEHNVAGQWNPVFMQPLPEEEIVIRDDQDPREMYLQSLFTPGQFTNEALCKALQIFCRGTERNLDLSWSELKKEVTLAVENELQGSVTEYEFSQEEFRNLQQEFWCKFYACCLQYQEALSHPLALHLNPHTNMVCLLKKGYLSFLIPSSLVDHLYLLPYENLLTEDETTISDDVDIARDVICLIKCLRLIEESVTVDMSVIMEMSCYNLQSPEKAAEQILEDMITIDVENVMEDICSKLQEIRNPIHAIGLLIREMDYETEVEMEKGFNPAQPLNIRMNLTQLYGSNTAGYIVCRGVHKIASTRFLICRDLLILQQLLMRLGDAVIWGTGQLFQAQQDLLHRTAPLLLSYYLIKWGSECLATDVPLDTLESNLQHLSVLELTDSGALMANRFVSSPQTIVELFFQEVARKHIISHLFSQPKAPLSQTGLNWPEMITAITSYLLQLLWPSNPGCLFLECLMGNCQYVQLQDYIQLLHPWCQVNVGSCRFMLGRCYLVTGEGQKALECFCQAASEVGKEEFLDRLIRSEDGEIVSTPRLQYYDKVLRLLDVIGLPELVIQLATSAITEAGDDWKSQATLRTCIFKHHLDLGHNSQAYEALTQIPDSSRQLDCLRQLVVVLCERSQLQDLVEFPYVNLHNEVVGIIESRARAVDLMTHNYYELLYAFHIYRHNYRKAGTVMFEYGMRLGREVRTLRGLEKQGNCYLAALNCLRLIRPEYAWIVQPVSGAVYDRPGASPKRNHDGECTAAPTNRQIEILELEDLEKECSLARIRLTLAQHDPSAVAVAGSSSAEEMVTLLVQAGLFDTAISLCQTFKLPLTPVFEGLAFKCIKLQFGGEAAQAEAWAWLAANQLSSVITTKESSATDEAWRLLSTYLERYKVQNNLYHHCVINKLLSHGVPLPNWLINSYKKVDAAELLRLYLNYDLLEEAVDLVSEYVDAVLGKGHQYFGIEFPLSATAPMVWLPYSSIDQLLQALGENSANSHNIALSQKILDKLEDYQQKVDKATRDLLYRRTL
UniProt Q9Y530: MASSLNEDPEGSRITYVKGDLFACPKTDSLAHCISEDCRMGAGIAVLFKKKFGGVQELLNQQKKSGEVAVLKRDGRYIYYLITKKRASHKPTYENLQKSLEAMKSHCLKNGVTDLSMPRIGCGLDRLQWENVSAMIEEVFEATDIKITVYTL
UniProt Q9H1E3: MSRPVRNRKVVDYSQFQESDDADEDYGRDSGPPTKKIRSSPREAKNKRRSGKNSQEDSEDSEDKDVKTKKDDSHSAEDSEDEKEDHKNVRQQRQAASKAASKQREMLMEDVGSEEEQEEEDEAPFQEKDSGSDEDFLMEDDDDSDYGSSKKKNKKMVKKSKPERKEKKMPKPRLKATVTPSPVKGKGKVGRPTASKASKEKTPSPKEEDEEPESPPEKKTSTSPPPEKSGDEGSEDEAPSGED
UniProt Q8WVJ2: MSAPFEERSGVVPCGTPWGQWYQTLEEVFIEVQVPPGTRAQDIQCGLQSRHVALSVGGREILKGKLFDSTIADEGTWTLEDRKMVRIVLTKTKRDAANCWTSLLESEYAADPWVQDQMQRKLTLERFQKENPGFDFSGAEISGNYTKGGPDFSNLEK

Legend:
Assay in all cases: log2 fold change, soluble protein after heating vs DMSO (PISA); higher = thermal stabilisation; K562 cells, 10 uM, 30 min; active = over 0.2 and 3.5 SD of the protein, either way, in both replicates (recomputed)
IRAK-1-4 Inhibitor I = compound: C1COCCN1CCN2C3=CC=CC=C3N=C2NC(=O)C4=CC(=CC=C4)[N+](=O)[O-] [IRAK-1-4 Inhibitor I]
Procedure, shortened: (§1)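 Soluble protein was defined as the supernatant after 21,000xg for 90 min. It came from K562 cells at 2×10^6 cells/mL given 10 μM compound for 30 min, heated in aliquots for 3 min across 48°C-58°C, pooled, and extracted in PBS with 0.5% NP-40 at 4°C, and was quantified by TMTpro 16plex LC-MS/MS with equalised channel sums. Thermal stability against control samples, from duplicates, is reported as log2 fold change.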

ibrutinib = compound: C=CC(=O)N1CCC[C@@H](n2nc(-c3ccc(Oc4ccccc4)cc3)c3c(N)ncnc32)C1 [ibrutinib]
Procedure, shortened: as §1

[1] = compound: CC(=O)c1cnc2ccc(-c3cc(Cl)c(O)c(Cl)c3)nc2c1N[C@H]1CC[C@H](CN(C)C)CC1
Procedure, shortened: as §1

ralimetinib = compound: CC(C)(C)Cn1c(N)nc2ccc(-c3[nH]c(C(C)(C)C)nc3-c3ccc(F)cc3)nc21 [ralimetinib]
Procedure, shortened: as §1

[2] = compound: CC(C)(O)CC(=O)NCCn1ccc2ncnc(Nc3ccc(Oc4cccc(C(F)(F)F)c4)c(Cl)c3)c21
Procedure, shortened: as §1

[3] = compound: CC(C)C1=C2N=C(C=C(N2N=C1)NCC3=CC=CC=C3)NCCCCCCN
Procedure, shortened: as §1

[4] = compound: CC(C)C[C@@H](C=O)NC(=O)[C@H](CC(C)C)NC(=O)[C@H](CC(C)C)NC(=O)OCc1ccccc1
Procedure, shortened: as §1

pinometostat = compound: CC(C)N(C[C@H]1O[C@@H](n2cnc3c(N)ncnc32)[C@H](O)[C@@H]1O)[C@H]1C[C@@H](CCc2nc3cc(C(C)(C)C)ccc3[nH]2)C1 [pinometostat]
Procedure, shortened: as §1

[5] = compound: CC1=C(C(CC(=O)N1)C2=CC=C(C=C2)C(F)(F)F)C(=O)NC3=C(C=C4C(=C3)C=NN4)F
Procedure, shortened: as §1

[6] = compound: CC1=C(C2=C(C=C1)C(=O)C3=CC=CC=C3N2CCCN)C
Procedure, shortened: as §1

[7] = compound: CC1=C(C=C(C=C1)NC(=O)C2=CC(=CC=C2)C(C)(C)C#N)NC3=CC4=C(C=C3)N=CN(C4=O)C
Procedure, shortened: as §1

[8] = compound: CC1=C(C=C(C=C1)NC(=O)C2=CC(=CC=C2)N(C)C)NC(=O)C3=CC=C(C=C3)O
Procedure, shortened: as §1

[9] = compound: CC1=CC=C(C=C1)SC2=C3C=C(SC3=CN=C2)C(=O)N
Procedure, shortened: as §1

[10] = compound: CC1=NC(=CC=C1)C2=C(N=C(N2)C(C)(C)C)C3=CC4=NC=CN=C4C=C3
Procedure, shortened: as §1

Nexturastat A = compound: CCCCN(Cc1ccc(C(=O)NO)cc1)C(=O)Nc1ccccc1 [Nexturastat A]
Procedure, shortened: as §1

vemurafenib = compound: CCCS(=O)(=O)Nc1ccc(F)c(C(=O)c2c[nH]c3ncc(-c4ccc(Cl)cc4)cc23)c1F [vemurafenib]
Procedure, shortened: as §1

[11] = compound: CCCS(=O)(=O)Nc1ccc(F)c(C(=O)c2c[nH]c3ncc(Cl)cc23)c1F
Procedure, shortened: as §1

[12] = compound: CCCc1cc(C)[nH]c(=O)c1CNC(=O)c1cc(-c2ccnc(N3CCN(C)CC3)c2)cc2c1cnn2C(C)C
Procedure, shortened: as §1

givinostat = compound: CCN(CC)Cc1ccc2cc(COC(=O)Nc3ccc(C(=O)NO)cc3)ccc2c1 [givinostat]
Procedure, shortened: as §1

barasertib = compound: CCN(CCCOc1ccc2c(Nc3cc(CC(=O)Nc4cccc(F)c4)[nH]n3)ncnc2c1)CCOP(=O)(O)O [barasertib]
Procedure, shortened: as §1

Row | Target | log2 fold change (IRAK-1-4 Inhibitor I) | log2 fold change (ibrutinib) | log2 fold change [1] | log2 fold change (ralimetinib) | log2 fold change [2] | log2 fold change [3] | log2 fold change [4] | log2 fold change (pinometostat) | log2 fold change [5] | log2 fold change [6] | log2 fold change [7] | log2 fold change [8] | log2 fold change [9] | log2 fold change [10] | log2 fold change (Nexturastat A) | log2 fold change (vemurafenib) | log2 fold change [11] | log2 fold change [12] | log2 fold change (givinostat) | log2 fold change (barasertib)
1 | NUBP2 (UniProt Q9Y5Y2) | inactive: 0.051 | inactive: 0.037 | inactive: -0.057 | inactive: -0.001 | inactive: -0.1 | inactive: -0.043 | inactive: -0.053 | inactive: 0.003 | inactive: 0.022 | inactive: 0.027 | inactive: -0.007 | inactive: -0.012 | inactive: 0.021 | inactive: 0.027 | inactive: 0.006 | inactive: 0.007 | inactive: 0.006 | inactive: -0.013 | inactive: -0.007 | inactive: 0.038
2 | NTMT1 (UniProt Q9BV86) | inactive: 0 | inactive: 0.011 | inactive: -0.046 | inactive: -0.02 | inactive: -0.053 | inactive: 0.095 | inactive: -0.052 | inactive: -0.029 | – | inactive: 0.157 | inactive: 0.05 | inactive: 0.037 | inactive: -0.003 | inactive: -0.034 | inactive: -0.042 | inactive: 0.062 | inactive: 0.012 | inactive: -0.073 | inactive: -0.066 | inactive: 0.019
3 | NUP42 (UniProt O15504) | inactive: -0.123 | inactive: -0.097 | inactive: 0.043 | inactive: 0.088 | inactive: 0.209 | inactive: -0.093 | inactive: 0.137 | inactive: 0.526 | inactive: 0.035 | inactive: -0.155 | inactive: -0.004 | inactive: -0.089 | inactive: -0.051 | inactive: -0.096 | inactive: 0.363 | – | inactive: -0.096 | inactive: -0.072 | inactive: 0.05 | inactive: -0.209
4 | OSBP (UniProt P22059) | inactive: 0 | inactive: -0.067 | inactive: -0.029 | inactive: -0.009 | inactive: -0.076 | inactive: 0.091 | inactive: 0.017 | inactive: -0.002 | – | inactive: 0.024 | inactive: 0.098 | inactive: -0.011 | inactive: -0.028 | inactive: 0.022 | inactive: -0.073 | inactive: 0.015 | inactive: 0.027 | inactive: -0.003 | inactive: -0.052 | inactive: -0.001
5 | OAT (UniProt P04181) | inactive: 0.044 | inactive: -0.006 | inactive: -0.044 | inactive: -0.053 | inactive: -0.113 | active: -0.245 | inactive: 0.007 | inactive: -0.027 | – | inactive: -0.007 | inactive: 0.087 | inactive: 0.014 | inactive: 0.02 | inactive: 0.042 | inactive: -0.01 | inactive: 0.011 | inactive: -0.023 | inactive: -0.011 | inactive: 0.045 | inactive: 0.061
6 | NUP153 (UniProt P49790) | inactive: -0.02 | inactive: -0.014 | inactive: -0.024 | inactive: 0.031 | inactive: 0.068 | inactive: -0.028 | inactive: 0.06 | inactive: 0.024 | inactive: 0.044 | inactive: 0.033 | inactive: -0.014 | inactive: 0.054 | inactive: -0.007 | inactive: 0.007 | inactive: 0.081 | inactive: -0.027 | inactive: 0.002 | inactive: -0.01 | inactive: -0.007 | inactive: 0.001
7 | OTUD7B (UniProt Q6GQQ9) | inactive: -0.16 | inactive: -0.123 | inactive: -0.183 | inactive: 0.051 | inactive: -0.092 | inactive: -0.283 | inactive: -0.18 | inactive: -0.178 | inactive: -0.104 | inactive: 0.081 | inactive: 0.041 | inactive: -0.028 | inactive: -0.019 | inactive: -0.14 | inactive: -0.03 | inactive: -0.001 | inactive: 0.127 | inactive: -0.051 | inactive: 0.133 | inactive: 0.075
8 | NSUN7 (UniProt Q8NE18) | inactive: -0.034 | inactive: -0.084 | inactive: -0.105 | inactive: -0.272 | inactive: 0.032 | inactive: -0.137 | inactive: 0.08 | inactive: 0.022 | inactive: 0.054 | inactive: 0.043 | – | inactive: 0.008 | inactive: -0.252 | inactive: -0.112 | inactive: -0.031 | inactive: -0.158 | inactive: -0.508 | inactive: -0.182 | inactive: 0.048 | inactive: -0.053
9 | NUP35 (UniProt Q8NFH5) | inactive: 0.048 | inactive: -0.053 | inactive: -0.015 | inactive: -0.036 | inactive: -0.119 | inactive: -0.004 | inactive: -0.015 | inactive: -0.028 | inactive: -0.088 | inactive: -0.007 | inactive: -0.035 | inactive: -0.009 | inactive: 0.06 | inactive: 0.051 | inactive: -0.061 | inactive: -0.008 | inactive: 0.083 | inactive: 0.011 | inactive: 0.046 | inactive: 0.047
10 | NUDT3 (UniProt O95989) | inactive: 0.011 | inactive: 0.007 | inactive: -0.028 | inactive: -0.075 | inactive: 0.001 | inactive: 0.012 | inactive: -0.027 | inactive: -0.052 | inactive: 0.039 | inactive: -0.017 | inactive: 0.008 | inactive: -0.034 | inactive: -0.012 | inactive: 0.02 | inactive: -0.125 | inactive: -0.012 | inactive: -0.065 | inactive: -0.044 | inactive: -0.04 | inactive: 0.019
11 | NUDT16 (UniProt Q96DE0) | inactive: 0.049 | inactive: 0.03 | inactive: 0.022 | inactive: -0.039 | inactive: 0.005 | inactive: 0.066 | inactive: -0.001 | inactive: -0.001 | – | inactive: 0.004 | inactive: -0.031 | inactive: -0.005 | inactive: -0.008 | inactive: -0.03 | inactive: -0.003 | inactive: 0.163 | inactive: 0.019 | inactive: -0.041 | inactive: -0.006 | inactive: 0.028
12 | NUP160 (UniProt Q12769) | inactive: -0.03 | inactive: -0.041 | inactive: -0.13 | inactive: -0.002 | inactive: -0.032 | inactive: -0.137 | inactive: -0.01 | inactive: 0.058 | – | inactive: -0.012 | inactive: 0.006 | inactive: 0.037 | inactive: 0.023 | inactive: 0.017 | inactive: -0.037 | inactive: -0.01 | inactive: 0.083 | inactive: 0.002 | inactive: 0.018 | inactive: 0.062
13 | OARD1 (UniProt Q9Y530) | inactive: -0.192 | inactive: -0.048 | inactive: -0.062 | inactive: 0.127 | inactive: -0.104 | inactive: -0.038 | inactive: 0.042 | inactive: -0.066 | inactive: 0.016 | inactive: 0.08 | inactive: 0.044 | inactive: -0.044 | inactive: 0.002 | inactive: 0.137 | inactive: 0.058 | inactive: 0.077 | inactive: 0.068 | inactive: 0.232 | inactive: 0.076 | inactive: 0.144
14 | NUCKS1 (UniProt Q9H1E3) | inactive: 0.094 | inactive: -0.018 | inactive: 0.208 | inactive: -0.054 | inactive: 0.018 | inactive: 0.138 | inactive: -0.029 | inactive: -0.061 | – | active: -0.454 | inactive: -0.036 | inactive: 0.065 | inactive: -0.014 | inactive: 0.044 | inactive: -0.061 | inactive: 0.017 | inactive: -0.061 | inactive: -0.076 | inactive: -0.004 | inactive: 0.008
15 | NSUN2 (UniProt Q08J23) | inactive: -0.02 | inactive: -0.029 | inactive: -0.165 | inactive: 0.062 | inactive: -0.008 | active: -0.314 | inactive: 0.026 | inactive: 0.058 | – | inactive: -0.075 | inactive: -0.042 | inactive: 0.013 | inactive: -0.021 | inactive: -0.009 | inactive: 0.037 | inactive: 0.016 | inactive: 0.061 | inactive: 0.019 | inactive: -0.204 | inactive: 0.037
16 | NUDCD2 (UniProt Q8WVJ2) | inactive: -0.032 | inactive: -0.035 | inactive: -0.027 | inactive: 0.033 | inactive: -0.045 | inactive: -0.248 | inactive: -0.012 | inactive: 0.066 | – | inactive: -0.064 | inactive: -0.018 | inactive: -0.109 | inactive: 0.117 | inactive: 0.019 | inactive: 0.082 | inactive: -0.014 | inactive: 0.008 | inactive: -0.039 | inactive: 0.047 | inactive: 0.104
17 | PAAF1 (UniProt Q9BRP4) | inactive: 0.037 | inactive: -0.003 | inactive: -0.029 | inactive: 0.001 | inactive: 0.007 | inactive: 0.037 | active: -0.28 | inactive: -0.026 | – | inactive: 0.027 | inactive: -0.026 | inactive: -0.005 | inactive: 0.016 | inactive: 0.003 | inactive: -0.035 | inactive: -0.028 | inactive: 0.019 | inactive: -0.038 | inactive: 0.023 | inactive: 0.021

Exported as comma-separated lines: entries from further up.
Row,Target,log2 fold change (IRAK-1-4 Inhibitor I),log2 fold change (ibrutinib),log2 fold change [1],log2 fold change (ralimetinib),log2 fold change [2],log2 fold change [3],log2 fold change [4],log2 fold change (pinometostat),log2 fold change [5],log2 fold change [6],log2 fold change [7],log2 fold change [8],log2 fold change [9],log2 fold change [10],log2 fold change (Nexturastat A),log2 fold change (vemurafenib),log2 fold change [11],log2 fold change [12],log2 fold change (givinostat),log2 fold change (barasertib)
4,OSBP (UniProt P22059),inactive: 0,inactive: -0.067,inactive: -0.029,inactive: -0.009,inactive: -0.076,inactive: 0.091,inactive: 0.017,inactive: -0.002,–,inactive: 0.024,inactive: 0.098,inactive: -0.011,inactive: -0.028,inactive: 0.022,inactive: -0.073,inactive: 0.015,inactive: 0.027,inactive: -0.003,inactive: -0.052,inactive: -0.001
5,OAT (UniProt P04181),inactive: 0.044,inactive: -0.006,inactive: -0.044,inactive: -0.053,inactive: -0.113,active: -0.245,inactive: 0.007,inactive: -0.027,–,inactive: -0.007,inactive: 0.087,inactive: 0.014,inactive: 0.02,inactive: 0.042,inactive: -0.01,inactive: 0.011,inactive: -0.023,inactive: -0.011,inactive: 0.045,inactive: 0.061
